Assay results taken from the supplement of paper PMC6411743.
± gives the standard deviation of the averaged measurements. Only a part is listed here, and it is no random draw.

Chains of the proteins cited; added tags and fusions are not shown. Lines headed by an entry give the natural chain unless they say otherwise; changes in a name come on top.
UniProt Q13547, whole entry: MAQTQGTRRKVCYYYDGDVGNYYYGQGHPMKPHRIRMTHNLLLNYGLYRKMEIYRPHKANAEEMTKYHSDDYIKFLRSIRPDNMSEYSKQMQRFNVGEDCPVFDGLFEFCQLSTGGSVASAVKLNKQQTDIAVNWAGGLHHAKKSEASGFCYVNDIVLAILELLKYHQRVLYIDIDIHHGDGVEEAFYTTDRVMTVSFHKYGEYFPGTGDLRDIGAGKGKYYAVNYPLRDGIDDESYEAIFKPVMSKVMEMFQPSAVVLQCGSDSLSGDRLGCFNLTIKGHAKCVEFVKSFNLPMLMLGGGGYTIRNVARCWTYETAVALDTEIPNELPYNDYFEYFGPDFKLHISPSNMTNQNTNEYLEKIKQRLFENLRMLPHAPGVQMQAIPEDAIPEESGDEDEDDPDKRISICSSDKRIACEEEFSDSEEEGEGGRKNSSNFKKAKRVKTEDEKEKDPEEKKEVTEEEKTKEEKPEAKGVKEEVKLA
UniProt Q14684: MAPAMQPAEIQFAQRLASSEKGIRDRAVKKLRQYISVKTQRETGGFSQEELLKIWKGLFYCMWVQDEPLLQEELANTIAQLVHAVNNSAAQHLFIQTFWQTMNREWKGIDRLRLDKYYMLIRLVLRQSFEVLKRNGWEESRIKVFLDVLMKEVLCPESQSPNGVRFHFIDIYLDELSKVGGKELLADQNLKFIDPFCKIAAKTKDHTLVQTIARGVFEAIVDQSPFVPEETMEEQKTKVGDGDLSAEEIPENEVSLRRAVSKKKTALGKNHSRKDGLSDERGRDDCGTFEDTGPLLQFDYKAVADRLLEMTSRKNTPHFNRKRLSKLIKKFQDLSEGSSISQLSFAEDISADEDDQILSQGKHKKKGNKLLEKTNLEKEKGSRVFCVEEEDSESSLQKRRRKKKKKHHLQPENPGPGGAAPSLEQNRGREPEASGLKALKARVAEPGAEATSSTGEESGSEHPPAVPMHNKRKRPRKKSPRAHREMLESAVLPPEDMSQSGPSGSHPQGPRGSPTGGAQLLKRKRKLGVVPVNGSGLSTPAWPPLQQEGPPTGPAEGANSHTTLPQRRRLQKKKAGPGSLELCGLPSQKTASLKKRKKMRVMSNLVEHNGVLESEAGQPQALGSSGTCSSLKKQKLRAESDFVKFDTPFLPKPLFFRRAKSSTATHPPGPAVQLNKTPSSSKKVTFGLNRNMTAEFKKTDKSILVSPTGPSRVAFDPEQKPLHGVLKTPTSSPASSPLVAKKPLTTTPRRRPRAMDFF
UniProt Q12792, whole entry: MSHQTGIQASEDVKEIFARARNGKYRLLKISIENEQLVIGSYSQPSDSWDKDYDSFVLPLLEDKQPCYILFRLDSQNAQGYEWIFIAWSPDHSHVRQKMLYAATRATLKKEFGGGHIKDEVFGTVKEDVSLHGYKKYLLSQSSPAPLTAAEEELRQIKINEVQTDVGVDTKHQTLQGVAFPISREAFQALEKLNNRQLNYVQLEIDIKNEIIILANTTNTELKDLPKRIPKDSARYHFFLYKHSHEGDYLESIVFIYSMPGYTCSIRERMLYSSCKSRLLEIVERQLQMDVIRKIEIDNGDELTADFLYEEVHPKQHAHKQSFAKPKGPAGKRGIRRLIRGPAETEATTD
UniProt Q08AM6: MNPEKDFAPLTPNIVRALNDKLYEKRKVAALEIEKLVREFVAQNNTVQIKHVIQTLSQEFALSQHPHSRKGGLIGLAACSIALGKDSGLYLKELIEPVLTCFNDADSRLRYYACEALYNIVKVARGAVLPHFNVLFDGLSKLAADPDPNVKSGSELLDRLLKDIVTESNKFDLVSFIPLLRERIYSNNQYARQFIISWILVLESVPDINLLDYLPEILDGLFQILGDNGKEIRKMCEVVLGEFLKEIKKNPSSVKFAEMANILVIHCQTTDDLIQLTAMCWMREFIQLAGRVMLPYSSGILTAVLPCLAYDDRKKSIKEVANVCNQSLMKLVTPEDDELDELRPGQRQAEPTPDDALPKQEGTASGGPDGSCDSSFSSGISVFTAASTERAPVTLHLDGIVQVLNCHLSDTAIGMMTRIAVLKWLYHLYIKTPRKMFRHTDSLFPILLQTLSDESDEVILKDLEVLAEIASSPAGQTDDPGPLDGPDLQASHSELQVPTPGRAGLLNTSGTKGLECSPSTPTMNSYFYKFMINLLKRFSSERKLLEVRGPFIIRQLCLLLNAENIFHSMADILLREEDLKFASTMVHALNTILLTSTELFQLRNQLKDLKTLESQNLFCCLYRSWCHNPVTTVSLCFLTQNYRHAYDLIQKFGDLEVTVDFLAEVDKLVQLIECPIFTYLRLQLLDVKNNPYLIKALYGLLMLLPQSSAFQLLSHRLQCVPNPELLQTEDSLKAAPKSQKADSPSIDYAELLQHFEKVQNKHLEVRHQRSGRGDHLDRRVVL
UniProt Q13242, whole entry: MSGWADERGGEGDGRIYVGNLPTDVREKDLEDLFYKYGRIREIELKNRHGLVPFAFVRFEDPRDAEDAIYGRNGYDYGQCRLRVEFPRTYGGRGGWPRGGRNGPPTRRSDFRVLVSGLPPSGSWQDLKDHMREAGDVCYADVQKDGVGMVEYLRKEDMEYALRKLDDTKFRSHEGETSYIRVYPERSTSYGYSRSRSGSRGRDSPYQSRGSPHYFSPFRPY
UniProt Q14764, whole entry: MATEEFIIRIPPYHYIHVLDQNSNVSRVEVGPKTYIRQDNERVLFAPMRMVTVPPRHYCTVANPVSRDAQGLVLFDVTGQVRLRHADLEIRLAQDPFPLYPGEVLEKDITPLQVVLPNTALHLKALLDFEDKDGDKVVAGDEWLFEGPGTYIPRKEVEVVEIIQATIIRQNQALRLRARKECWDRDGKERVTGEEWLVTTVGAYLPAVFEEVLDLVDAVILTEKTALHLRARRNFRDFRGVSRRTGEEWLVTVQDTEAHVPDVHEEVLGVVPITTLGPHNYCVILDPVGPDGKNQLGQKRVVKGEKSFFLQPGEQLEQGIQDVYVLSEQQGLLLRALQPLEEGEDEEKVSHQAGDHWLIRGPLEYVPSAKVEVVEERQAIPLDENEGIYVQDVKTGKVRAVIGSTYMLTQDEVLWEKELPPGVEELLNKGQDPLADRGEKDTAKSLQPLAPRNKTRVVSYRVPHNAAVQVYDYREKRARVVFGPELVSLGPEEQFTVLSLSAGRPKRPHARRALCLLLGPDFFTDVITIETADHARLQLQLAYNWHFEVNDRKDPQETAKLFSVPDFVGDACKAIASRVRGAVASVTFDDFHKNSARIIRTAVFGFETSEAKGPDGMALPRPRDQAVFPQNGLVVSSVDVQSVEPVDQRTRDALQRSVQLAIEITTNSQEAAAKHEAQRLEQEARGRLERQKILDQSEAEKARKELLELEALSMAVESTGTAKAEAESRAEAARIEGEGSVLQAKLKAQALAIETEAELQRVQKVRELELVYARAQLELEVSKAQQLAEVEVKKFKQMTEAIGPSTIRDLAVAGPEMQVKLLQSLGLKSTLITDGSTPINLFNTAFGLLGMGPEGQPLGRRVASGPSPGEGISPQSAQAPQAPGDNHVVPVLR
UniProt Q13574: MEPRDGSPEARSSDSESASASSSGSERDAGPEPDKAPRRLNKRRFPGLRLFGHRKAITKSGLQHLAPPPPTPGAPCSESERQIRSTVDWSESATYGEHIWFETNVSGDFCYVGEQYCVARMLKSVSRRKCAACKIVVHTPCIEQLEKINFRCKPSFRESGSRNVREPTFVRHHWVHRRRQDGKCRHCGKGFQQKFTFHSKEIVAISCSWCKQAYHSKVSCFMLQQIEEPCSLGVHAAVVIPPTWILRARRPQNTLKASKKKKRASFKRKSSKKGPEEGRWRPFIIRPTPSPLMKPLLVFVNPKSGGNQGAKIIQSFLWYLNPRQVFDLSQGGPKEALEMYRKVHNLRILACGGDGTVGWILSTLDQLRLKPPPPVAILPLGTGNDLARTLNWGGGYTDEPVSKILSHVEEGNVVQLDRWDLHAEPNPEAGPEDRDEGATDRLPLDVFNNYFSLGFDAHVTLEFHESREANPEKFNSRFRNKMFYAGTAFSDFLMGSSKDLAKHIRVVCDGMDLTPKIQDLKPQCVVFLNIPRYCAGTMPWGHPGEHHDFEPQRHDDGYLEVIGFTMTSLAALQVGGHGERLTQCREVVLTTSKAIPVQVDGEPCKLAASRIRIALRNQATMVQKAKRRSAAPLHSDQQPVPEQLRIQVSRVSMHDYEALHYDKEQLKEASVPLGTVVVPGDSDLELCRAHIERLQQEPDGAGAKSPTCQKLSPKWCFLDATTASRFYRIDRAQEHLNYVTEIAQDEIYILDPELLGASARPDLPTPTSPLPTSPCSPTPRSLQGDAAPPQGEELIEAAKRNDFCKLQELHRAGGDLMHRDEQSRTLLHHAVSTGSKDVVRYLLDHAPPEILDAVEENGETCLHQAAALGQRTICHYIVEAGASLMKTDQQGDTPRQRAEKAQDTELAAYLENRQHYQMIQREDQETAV
UniProt Q14691: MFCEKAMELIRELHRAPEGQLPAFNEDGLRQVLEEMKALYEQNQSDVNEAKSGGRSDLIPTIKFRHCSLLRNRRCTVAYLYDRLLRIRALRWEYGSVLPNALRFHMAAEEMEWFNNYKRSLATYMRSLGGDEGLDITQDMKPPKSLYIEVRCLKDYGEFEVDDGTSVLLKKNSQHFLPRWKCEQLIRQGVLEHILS
UniProt Q14566: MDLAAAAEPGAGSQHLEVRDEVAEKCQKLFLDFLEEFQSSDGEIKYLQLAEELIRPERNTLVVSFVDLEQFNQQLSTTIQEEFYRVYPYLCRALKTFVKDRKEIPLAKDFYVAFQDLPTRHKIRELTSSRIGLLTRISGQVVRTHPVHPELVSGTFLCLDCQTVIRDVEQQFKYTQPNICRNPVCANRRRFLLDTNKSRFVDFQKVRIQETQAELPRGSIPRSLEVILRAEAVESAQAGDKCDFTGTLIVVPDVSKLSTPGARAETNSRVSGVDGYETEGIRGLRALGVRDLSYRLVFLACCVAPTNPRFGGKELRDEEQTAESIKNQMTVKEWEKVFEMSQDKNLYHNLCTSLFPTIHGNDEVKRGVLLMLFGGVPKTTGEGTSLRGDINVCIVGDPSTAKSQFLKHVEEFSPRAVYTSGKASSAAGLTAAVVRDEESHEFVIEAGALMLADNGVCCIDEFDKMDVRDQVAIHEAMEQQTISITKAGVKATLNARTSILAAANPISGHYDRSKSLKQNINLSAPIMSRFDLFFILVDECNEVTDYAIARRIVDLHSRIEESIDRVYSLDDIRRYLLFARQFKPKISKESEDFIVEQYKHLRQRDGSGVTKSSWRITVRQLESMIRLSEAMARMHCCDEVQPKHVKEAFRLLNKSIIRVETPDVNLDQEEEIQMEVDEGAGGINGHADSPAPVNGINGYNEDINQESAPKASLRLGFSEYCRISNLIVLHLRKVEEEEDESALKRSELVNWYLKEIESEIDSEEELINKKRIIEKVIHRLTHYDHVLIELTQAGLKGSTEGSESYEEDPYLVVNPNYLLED
UniProt Q14149: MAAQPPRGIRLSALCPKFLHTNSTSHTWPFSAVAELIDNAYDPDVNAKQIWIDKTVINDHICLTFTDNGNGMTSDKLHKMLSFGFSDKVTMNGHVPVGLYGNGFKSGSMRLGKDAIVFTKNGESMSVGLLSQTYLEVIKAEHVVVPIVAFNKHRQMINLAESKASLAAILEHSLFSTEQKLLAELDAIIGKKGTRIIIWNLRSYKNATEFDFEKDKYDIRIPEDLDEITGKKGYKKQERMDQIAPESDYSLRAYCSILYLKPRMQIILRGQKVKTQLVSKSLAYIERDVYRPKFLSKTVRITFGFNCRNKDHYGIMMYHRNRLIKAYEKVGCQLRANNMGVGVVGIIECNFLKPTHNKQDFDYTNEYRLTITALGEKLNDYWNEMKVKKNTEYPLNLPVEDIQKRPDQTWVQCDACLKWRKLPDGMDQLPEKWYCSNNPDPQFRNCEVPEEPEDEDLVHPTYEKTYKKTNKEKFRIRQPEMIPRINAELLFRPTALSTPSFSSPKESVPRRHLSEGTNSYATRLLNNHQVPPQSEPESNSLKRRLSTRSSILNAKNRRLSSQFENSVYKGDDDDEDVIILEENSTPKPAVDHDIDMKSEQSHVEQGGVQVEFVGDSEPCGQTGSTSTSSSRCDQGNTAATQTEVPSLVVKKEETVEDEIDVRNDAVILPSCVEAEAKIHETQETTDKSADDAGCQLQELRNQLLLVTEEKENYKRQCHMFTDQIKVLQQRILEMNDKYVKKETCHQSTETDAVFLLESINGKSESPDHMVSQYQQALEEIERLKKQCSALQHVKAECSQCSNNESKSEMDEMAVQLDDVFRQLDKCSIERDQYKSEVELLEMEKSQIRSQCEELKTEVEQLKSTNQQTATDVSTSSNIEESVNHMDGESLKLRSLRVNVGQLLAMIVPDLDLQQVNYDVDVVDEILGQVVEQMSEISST
UniProt Q13257, whole entry: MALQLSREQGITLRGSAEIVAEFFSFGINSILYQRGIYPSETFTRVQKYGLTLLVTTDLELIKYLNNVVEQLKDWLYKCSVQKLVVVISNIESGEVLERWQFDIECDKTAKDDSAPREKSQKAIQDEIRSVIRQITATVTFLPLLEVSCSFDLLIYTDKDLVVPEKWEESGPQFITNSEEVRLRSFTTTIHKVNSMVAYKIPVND

Compound: Nc1ncnc2c1ncn2[C@@H]1O[C@H](COP(=O)(O)OP(=O)(O)NP(=O)(O)O)[C@@H](O)[C@H]1O [adenylyl imidodiphosphate]
Assay: NP40-soluble protein abundance relative to vehicle (solubility fold change) (ratio); higher = more soluble protein in presence of AMP-PNP
Summary of the method: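 Across three independent experiments, values are fold changes against the detergent-processed vehicle for each replicate, based on vsn-normalised intensities. The samples were Jurkat crude lysate treated with eight concentrations (0.1 to 10 mM) for 10 min at room temperature and then 3 min at 37 °C. Lysate was solubilised with 0.8% NP40 and benzonase, ultracentrifuged, and the supernatant analysed by TMT-labelled LC-MS/MS.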

Target	NP40-soluble protein abundance (concentration: 1mM)	NP40-soluble protein abundance (concentration: 2mM)	NP40-soluble protein abundance (concentration: 4mM)	NP40-soluble protein abundance (concentration: 6mM)	NP40-soluble protein abundance (concentration: 8mM)	NP40-soluble protein abundance (concentration: 10mM)
TFDP2 (UniProt Q14188)	1 ± 0.043	1.02 ± 0.046	1.01 ± 0.051	1.015 ± 0.01	1.016 ± 0.01	1.02 ± 0.013
UniProt Q15067-2|Q15067	1 ± 0.034	0.936 ± 0.074	1.01 ± 0.035	1.09 ± 0.071	1.09 ± 0.053	1.068 ± 0.0032
EIF2B1 (UniProt Q14232)	0.987 ± 0.022	0.966 ± 0.024	0.995 ± 0.048	1.06 ± 0.1	1.08 ± 0.061	1.05 ± 0.049
USP4 (UniProt Q13107)	1 ± 0.018	0.967 ± 0.044	1 ± 0.046	0.97 ± 0.042	0.975 ± 0.039	0.942 ± 0.038
PRDX4 (UniProt Q13162)	0.963 ± 0.011	0.917 ± 0.077	0.933 ± 0.015	0.9013 ± 0.0025	0.914 ± 0.027	0.889 ± 0.012
WTAP (UniProt Q15007)	1.06 ± 0.026	1.1 ± 0.097	1.03 ± 0.016	1.01 ± 0.052	0.994 ± 0.066	1 ± 0.022
HDAC1 (UniProt Q13547)	0.93 ± 0.014	0.914 ± 0.016	0.892 ± 0.022	0.942 ± 0.0047	0.919 ± 0.015	0.909 ± 0.028
MORF4L2 (UniProt Q15014)	1.03 ± 0.014	1.091 ± 0.0075	1.07 ± 0.057	1.05 ± 0.036	1.07 ± 0.059	1.08 ± 0.012
UniProt Q13136 and related entries	0.998 ± 0.024	1.03 ± 0.042	1.03 ± 0.047	0.954 ± 0.038	0.954 ± 0.046	0.997 ± 0.078
CBX2 (UniProt Q14781)	1 ± 0.03	1.01 ± 0.0083	1.01 ± 0.033	1.08 ± 0.04	1.05 ± 0.016	1.1 ± 0.053
UniProt Q12888 and related entries	1.01 ± 0.026	1.05 ± 0.043	0.997 ± 0.041	0.976 ± 0.035	0.942 ± 0.029	0.967 ± 0.056
UniProt Q14684 and related entries	1.06 ± 0.029	1.09 ± 0.06	1.09 ± 0.038	1.08 ± 0.037	1.1 ± 0.039	1.12 ± 0.059
UniProt Q10567-3|Q10567-4	0.9767 ± 0.0069	0.9617 ± 0.0063	0.95 ± 0.026	1 ± 0.05	0.972 ± 0.029	1.01 ± 0.058
UniProt Q14C86-6|Q14C86 and related entries	0.987 ± 0.032	0.988 ± 0.048	0.986 ± 0.042	0.986 ± 0.017	0.969 ± 0.029	0.988 ± 0.038
CSTF3 (UniProt Q12996)	1.02 ± 0.014	0.983 ± 0.038	1.07 ± 0.042	1.08 ± 0.057	1.11 ± 0.09	1.12 ± 0.087
TWF1 (UniProt Q12792)	0.943 ± 0.028	0.94 ± 0.015	0.9383 ± 0.0042	0.941 ± 0.028	0.9185 ± 0.009	0.954 ± 0.026
UniProt Q08AM6 and related entries	0.986 ± 0.029	0.963 ± 0.034	0.996 ± 0.02	0.947 ± 0.068	0.943 ± 0.082	0.979 ± 0.059

Whole records from above.
UniProt Q12888 and related entries is listed with NP40-soluble protein abundance (concentration: 1mM): 1.01 ± 0.026; NP40-soluble protein abundance (concentration: 2mM): 1.05 ± 0.043; NP40-soluble protein abundance (concentration: 4mM): 0.997 ± 0.041; NP40-soluble protein abundance (concentration: 6mM): 0.976 ± 0.035; NP40-soluble protein abundance (concentration: 8mM): 0.942 ± 0.029; NP40-soluble protein abundance (concentration: 10mM): 0.967 ± 0.056
UniProt Q14684 and related entries is listed with NP40-soluble protein abundance (concentration: 1mM): 1.06 ± 0.029; NP40-soluble protein abundance (concentration: 2mM): 1.09 ± 0.06; NP40-soluble protein abundance (concentration: 4mM): 1.09 ± 0.038; NP40-soluble protein abundance (concentration: 6mM): 1.08 ± 0.037; NP40-soluble protein abundance (concentration: 8mM): 1.1 ± 0.039; NP40-soluble protein abundance (concentration: 10mM): 1.12 ± 0.059

The results go on.

Target	NP40-soluble protein abundance (concentration: 1mM)	NP40-soluble protein abundance (concentration: 2mM)	NP40-soluble protein abundance (concentration: 4mM)	NP40-soluble protein abundance (concentration: 6mM)	NP40-soluble protein abundance (concentration: 8mM)	NP40-soluble protein abundance (concentration: 10mM)
ITPK1 (UniProt Q13572)	1.019 ± 0.0014	1.035 ± 0.0039	1.01 ± 0.014	0.992 ± 0.025	1.02 ± 0.04	0.9738 ± 0.0084
UniProt Q13242	1 ± 0.056	1.16 ± 0.012	1.08 ± 0.063	1.19 ± 0.068	1.16 ± 0.058	1.28 ± 0.088
MVP (UniProt Q14764)	1.03 ± 0.047	1.04 ± 0.05	0.995 ± 0.05	1.02 ± 0.046	1.01 ± 0.037	1.02 ± 0.074
UniProt Q13574 and related entries	1.014 ± 0.0035	1.006 ± 0.0062	1.04 ± 0.048	0.999 ± 0.048	0.983 ± 0.071	0.996 ± 0.1
GINS1 (UniProt Q14691)	0.999 ± 0.025	0.9955 ± 0.0052	1.01 ± 0.011	0.991 ± 0.022	1 ± 0.025	0.983 ± 0.022
UniProt Q13085 and related entries	0.981 ± 0.012	0.883 ± 0.11	0.928 ± 0.024	0.902 ± 0.027	0.91 ± 0.033	0.859 ± 0.049
UniProt Q14103-3|Q14103-4|D6RF44	1 ± 0.068	1.03 ± 0.053	0.998 ± 0.028	1.07 ± 0.027	1.06 ± 0.029	1.09 ± 0.042
UniProt Q13409-3|Q13409-2	0.952 ± 0.039	0.946 ± 0.07	0.923 ± 0.054	0.922 ± 0.075	0.904 ± 0.051	0.89 ± 0.06
MCM6 (UniProt Q14566)	0.901 ± 0.017	0.813 ± 0.091	0.874 ± 0.043	0.883 ± 0.025	0.903 ± 0.037	0.833 ± 0.058
TRIM32 (UniProt Q13049)	1.019 ± 0.0082	0.981 ± 0.039	1.02 ± 0.027	0.982 ± 0.045	0.951 ± 0.022	1 ± 0.04
MORC3 (UniProt Q14149)	1.04 ± 0.031	1.04 ± 0.013	1.02 ± 0.018	0.997 ± 0.035	0.985 ± 0.024	0.972 ± 0.029
UniProt Q13363 and related entries	0.985 ± 0.022	0.966 ± 0.041	0.961 ± 0.023	1.05 ± 0.058	1.03 ± 0.07	1.04 ± 0.042
STX4 (UniProt Q12846)	0.989 ± 0.036	1.04 ± 0.038	1 ± 0.053	1 ± 0.023	0.984 ± 0.031	0.983 ± 0.028
MAD2L1 (UniProt Q13257)	0.956 ± 0.068	0.886 ± 0.053	0.953 ± 0.04	0.999 ± 0.096	1.05 ± 0.059	0.996 ± 0.046
UniProt Q14318-2|Q14318	1.01 ± 0.0018	1.017 ± 0.0057	1.01 ± 0.025	1.02 ± 0.031	1.02 ± 0.022	1.06 ± 0.021
DDX10 (UniProt Q13206)	0.995 ± 0.02	1 ± 0.016	0.984 ± 0.029	0.981 ± 0.034	0.962 ± 0.031	0.979 ± 0.037
PWP1 (UniProt Q13610)	1.06 ± 0.041	1.04 ± 0.066	1.03 ± 0.039	1.03 ± 0.018	1.02 ± 0.045	1.03 ± 0.029
